Values of other authors, collected in patent US7902228B2, “Schweinfurthin analogues” (University of Iowa Research Foundation, priority 2004, dated 2011).
Some of these results come from one statement about several compounds together. At least one compound was matched to its structure with a doubt left.

System: NCI's 60-cell line
Details: NCI's 60-cell line anticancer assay, mean over cell lines

Molecule	GI50 [µM]
COc1cc(/C=C/c2cc(O)c(C/C=C(\C)CCC=C(C)C)c(O)c2)cc2c1O[C@]1(C)C[C@@H](O)[C@@H](O)C(C)(C)[C@H]1C2 [Schweinfurthin B]	< 1
Schweinfurthin D	< 1
